Laboratory results reported in PubChem BioAssay AID2718 (Broad Institute, 2010).
Hit rate of the full screen: of about 320,000 compounds, about 480 (0.15%) were called active. Inconclusive results, whose numbers are uncertain, are shown with a selection of clear calls. Cut-off read from the data, not from the text of the source: active = inhibition above about 26% (passing the limit was not always enough); inconclusive = no clear call, values can overlap the other calls.

Sequences of proteins named here, by UniProt entry; tags and fusion partners are left off.
UniProt O15379, whole entry, looked up: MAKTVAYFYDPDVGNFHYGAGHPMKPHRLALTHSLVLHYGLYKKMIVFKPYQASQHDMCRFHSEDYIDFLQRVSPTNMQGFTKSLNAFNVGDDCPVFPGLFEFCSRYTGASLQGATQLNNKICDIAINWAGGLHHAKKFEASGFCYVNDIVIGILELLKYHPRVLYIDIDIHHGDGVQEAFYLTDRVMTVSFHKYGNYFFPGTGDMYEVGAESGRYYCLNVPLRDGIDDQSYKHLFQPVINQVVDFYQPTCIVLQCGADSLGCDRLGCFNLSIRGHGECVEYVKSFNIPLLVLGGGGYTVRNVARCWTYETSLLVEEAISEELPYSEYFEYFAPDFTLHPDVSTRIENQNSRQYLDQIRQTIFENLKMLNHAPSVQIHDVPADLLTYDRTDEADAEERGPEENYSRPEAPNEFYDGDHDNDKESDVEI

molecular target: Histone deacetylase 3 (Homo sapiens) (UniProt O15379); experiment: HDAC3 deacetylase inhibitors, primary screen, biochemical, fluorescence, cell-free homogeneous (AID 2718); conditions: recombinant HDAC3, fluorogenic peptide/trypsin coupled, at 8.3 µM, hits give high values

Row | Compound | inhibition
1 | CC(C)(C)NS(=O)(=O)c1ccc(NC(=O)C(Sc2ccccc2)c2ccccc2)cc1 (centres undefined) | active: 28.6%
2 | Cc1ccc2c(c1)oc(=O)n2CC(=O)c1ccccc1 | inactive: -1.88%
3 | CCCC(C(=O)NC(C)(C)C)N(C(=O)c1snc(C(N)=O)c1N)c1ccc2c(c1)OCCO2 (centres undefined) | inconclusive: 19.5%
4 | CCCC(CCC)=NNC(=O)c1ccccc1F | inactive: 3.01%
5 | CCCCN(CC)CCNC(=O)CCC(=O)Nc1ccc2nc(N3CCN(C)CC3)cc(C)c2c1 | inactive: -20.6%
6 | O=c1cc(O)nc(SCc2ccc(Cl)cc2)[nH]1 | inconclusive: 15.2%
7 | CCOc1ccccc1NC(=O)CSc1nnc(CNC(=O)c2cccs2)o1 | inconclusive: 27%
8 | O/N=C/c1ccnc(SCc2ccccc2)n1 | inconclusive: 22.9%
9 | Nc1nc(N)c(N=O)c(OCC2CCCCC2)n1 | inactive: 9.5%
10 | Cc1ccc(S(=O)(=O)N(C)C)cc1NC(=O)COC(=O)/C=C/c1cccs1 | inconclusive: 29%
11 | Cc1ccc(C2CC(=O)NC(SCC(=O)OCc3ccccc3)=C2C#N)o1 (centres undefined) | inconclusive: 28.5%
12 | O=C(/C=C/c1ccc(OCCCF)cc1)NCc1ccc(Cl)cc1 | inactive: 3.85%
13 | Cc1cc(C)c(S(=O)(=O)Nc2ccc(C(N)=O)cc2)c(C)c1 | inconclusive: 23.6%
14 | CCC(=O)N1CCc2cc(S(=O)(=O)NCCC(=O)NC3CCCCCC3)ccc21 | inconclusive: 10%
15 | CN(CC(=O)Nc1ccc(C#N)cc1)Cc1ccc(Cl)cc1 | inconclusive: 34.3%
16 | CCN(CC)P(=O)(Nc1ccccc1Br)c1ccc(N(C)C)cc1NC(=O)c1ccco1 (centres undefined) | inconclusive: 22.5%
17 | CC(C)c1cccc(C(C)C)c1NC(=O)CCN1C(=O)NC2(CCCC2)C1=O | inactive: -2.97%
18 | CC1CC1c1ccc(/C=C(\C#N)C(=O)Nc2cc(Cl)ccc2Cl)o1 (centres undefined) | inconclusive: 18.4%
19 | O=C(CNc1cc(S(=O)(=O)N2CCOCC2)ccc1N1CCCC1)NCc1ccco1 | inconclusive: 16.6%
20 | COc1ccc(OC)c(-n2c(-c3cccc(O)c3)n[nH]c2=S)c1 | inconclusive: 28.2%
21 | Clc1cccc(N2CCN(Cc3ccc(Br)o3)CC2)c1 | inconclusive: 11.8%
22 | C=CC[C@@H](CC(=O)N(CCO)Cc1ccccc1)C(=O)N[C@@H](COC(=O)[C@@H](CC=C)Cc1ccc(F)cc1)Cc1c[nH]c2ccccc12 | active: 39.5%
23 | NS(=O)(=O)c1cccc(NC(=O)COC(=O)c2cc(Cl)ccc2[N+](=O)[O-])c1 | inactive: 2.39%

Row | Compound | inhibition
24 | CCOC(=O)c1c(C)[nH]c(C)c1S(=O)(=O)NCCCc1ccco1 | inconclusive: 27.5%
25 | Cc1nc2ccc(Br)cn2c1NC(C)(C)C | inactive: -7.41%
26 | COC(=O)C(C)Sc1nnc(Cc2cc(=O)[nH]c(=O)[nH]2)n1-c1cccc(OC)c1 (centres undefined) | inconclusive: 17.3%
27 | COc1ccccc1NC(=O)CSc1n[nH]c(-c2cccnc2)n1 | inactive: -6%
28 | CCN1CCN(C(=S)Nc2ccc([N+](=O)[O-])cc2)CC1 | inconclusive: 16.8%
29 | CC(C)(C)c1ccc(S(=O)(=O)N2CCC(c3nc4ccc(Cl)cc4[nH]3)CC2)cc1 | inconclusive: 28.5%
30 | O=S(=O)(Nc1nc2ccccc2nc1N1CCN(c2ccccc2F)CC1)c1ccc(Cl)cc1 | inactive: 6.01%
31 | Cc1nn(-c2ccccc2)c2c1C(c1ccc(F)cc1F)C(C#N)=C(N)O2 (centres undefined) | inconclusive: 24.1%
32 | O=C(COc1ccccc1)OCC(=O)N1CCCc2ccccc21 | inconclusive: 25.8%
33 | CCn1c(=O)c2c(nc3n2CCCN3c2cccc(C)c2)n(C)c1=O | inconclusive: 15.2%
34 | COc1cccc(N2CC(C(=O)Nc3nnc(SCCN4CCOCC4)s3)CC2=O)c1 (centres undefined) | inconclusive: 17.7%
35 | COc1ccc(NC(=O)CSc2nc3ncccc3[nH]2)cc1OC | inactive: -6.24%
36 | NC(=O)C1=C[C@H](c2ccccc2)C[C@H](OCc2ccc(CO)cc2)O1 | active: 28.1%
37 | CSCc1ccc(C(=O)OCc2nc3ccccc3s2)o1 | inactive: 2.97%
38 | O=C(CN(c1ccccn1)S(=O)(=O)c1ccc(F)cc1)Nc1ccc(F)cc1F | inconclusive: 9.12%
39 | COc1ccc(CCNc2nc(C)cc(=O)[nH]2)cc1OC | inconclusive: 23.1%
40 | CCOc1cc(C2C(C(=O)N3CCOCC3)=C(C)NC3=C2C(=O)CCC3)ccc1O (centres undefined) | inconclusive: 15.4%
41 | CC(C)C[C@H](NC(=O)c1[nH]cnc1C(=O)N[C@H](C)c1ccccc1)C(=O)OCc1ccccc1 | inconclusive: 40.1%
42 | C[n+]1c2n(c3ccccc31)N=C(c1ccc(Cl)cc1)CS2 | active: 55%
43 | COc1ccc(C(=O)/C=C/c2ccc(C)cc2)c(OC(=O)c2ccc([N+](=O)[O-])cc2)c1 | inconclusive: 17.9%
44 | Cc1ccc(NC(=O)C(C)N2C(=O)c3ccccc3C2=O)c(C)c1 (centres undefined) | inactive: 0.424%
45 | CC(=O)Oc1ccc(C23CC4CC(CC(C4)C2)C3)cc1C(=O)O | inactive: -2.96%
46 | COC(=O)c1ccc2c(c1)NC(=O)C1CCCN21 (centres undefined) | inconclusive: 15.1%

Row | Compound | inhibition
47 | CC1CCCCC1NC(=O)COC(=O)c1cc(=O)c2ccccc2o1 (centres undefined) | inactive: -4.05%
48 | COC(=O)c1ccccc1Nc1cc(C)nc2nc(C)nn12 | inconclusive: 12.9%
49 | CCOC(=O)c1ccc(-c2c(-c3ccc(OC)cc3)oc(=O)c3cc(OC)c(OC)cc23)cc1F | inactive: -1%
50 | O=C1CCc2cc(S(=O)(=O)NC(Cc3ccccc3)C(=O)NC3CCCC3)ccc2N1 (centres undefined) | inactive: -5.06%
51 | CC(C)CCCC(C)NS(=O)(=O)Cc1ccccc1 (centres undefined) | inconclusive: 20.3%
52 | CCc1c(C2(O)CCCCC2)[nH]c2ccc(C(F)(F)F)cc12 | inconclusive: 33.5%
53 | COc1ccc(S(=O)(=O)NCc2csc(-c3cccnc3)n2)cc1 | inconclusive: 15.4%
54 | CCCNC(=S)N1CCC(NC(=O)Nc2ccc(C)cc2)CC1 | inactive: -4.46%
55 | CCn1c(N2CCN(C(=S)NCC(C)C)CC2)nc2ccccc21 | inactive: -17.3%
56 | CCCCOc1ccc(-c2cn3ccccc3n2)cc1[N+](=O)[O-] | inactive: 5.11%
57 | O=C(NCCc1ccccc1)C1CCCN1S(=O)(=O)c1ccc(Cl)cc1 (centres undefined) | inconclusive: 10.3%
58 | COc1ccc(S(=O)(=O)N2CCCC2)cc1C(=O)N1CCCCC1 | inconclusive: 20.8%
59 | Cc1ccc(C)c(NC(=O)Cn2nc(-c3ccccc3)nc2-c2ccccc2)c1 | inconclusive: 11.9%
60 | Brc1ccc(-c2ncc3ccccn23)cc1 | inactive: 8.16%
61 | Cc1ccc(N2CCN(S(=O)(=O)c3c(C)noc3C)CC2C)cc1 (centres undefined) | inconclusive: 11.1%
62 | CCC(=O)Nc1nc(-c2ccc3c(c2)CC(C)N3S(C)(=O)=O)cs1 (centres undefined) | inconclusive: 15%
63 | COc1ccc(Nc2ccc3c(c2)=NC2(CCCCC2)[N+]=3[O-])cc1 | inconclusive: 16.5%
64 | Nc1ncnc2nc(SCC(=O)Nc3ccccc3F)[nH]c12 | inactive: -8.55%
65 | COc1ccc(C2NC(=S)NC3=C2CCCC3=C2SCCS2)cc1 (centres undefined) | inconclusive: 94.7%
66 | CCCSc1nc(N)c2c3c(sc2n1)CN(C)CC3 | inactive: -17.7%
67 | O=C(O)c1ccccc1-c1ccc(/C=c2\sc3nc4cc(Br)cnc4n3c2=O)o1 | inconclusive: 25.7%
68 | Nc1nc(NCc2ccccc2Cl)n(-c2ccccc2)n1 | inactive: 0.763%
69 | C[C@H](NC(=O)c1nc[nH]c1C(=O)N[C@@H](Cc1ccccc1)C(=O)OC(C)(C)C)c1ccccc1 | active: 28.1%

Shown as a markdown table: 7 of the compounds above.

| Row | Compound | inhibition |
| --- | --- | --- |
| 26 | COC(=O)C(C)Sc1nnc(Cc2cc(=O)[nH]c(=O)[nH]2)n1-c1cccc(OC)c1 (centres undefined) | inconclusive: 17.3% |
| 37 | CSCc1ccc(C(=O)OCc2nc3ccccc3s2)o1 | inactive: 2.97% |
| 47 | CC1CCCCC1NC(=O)COC(=O)c1cc(=O)c2ccccc2o1 (centres undefined) | inactive: -4.05% |
| 48 | COC(=O)c1ccccc1Nc1cc(C)nc2nc(C)nn12 | inconclusive: 12.9% |
| 50 | O=C1CCc2cc(S(=O)(=O)NC(Cc3ccccc3)C(=O)NC3CCCC3)ccc2N1 (centres undefined) | inactive: -5.06% |
| 61 | Cc1ccc(N2CCN(S(=O)(=O)c3c(C)noc3C)CC2C)cc1 (centres undefined) | inconclusive: 11.1% |
| 66 | CCCSc1nc(N)c2c3c(sc2n1)CN(C)CC3 | inactive: -17.7% |

The listing continues:

Row | Compound | inhibition
70 | CC1(C)SC2c3ccccc3C(=O)N2[C@@H]1C(=O)NC1CCCC1 (some centres undefined) | inconclusive: 20%
71 | CC(OC(=O)Cc1c[nH]c2ccccc12)C(=O)Nc1ccccc1F (centres undefined) | inconclusive: 26.2%
72 | CCn1cnc2c1c(=O)n(Cc1ccc(C(=O)OC)cc1)c(=O)n2Cc1ccccc1 | inactive: -8.44%
73 | CCOC(=O)C(NC(=O)Nc1ccc(Cl)cn1)(Oc1ccccc1)C(F)(F)F (centres undefined) | inconclusive: 27.2%
74 | Cc1ccc(C2OC(=O)C=C2c2ccccc2)cc1 (centres undefined) | inactive: 2.59%
75 | O=c1oc(-c2cccnc2)nc2ccccc12 | inconclusive: 24.8%
76 | CN(C)S(=O)(=O)N1CCN(C(=O)N(c2ccccc2)c2ccccc2)CC1 | inconclusive: 14.6%
77 | CC(=O)c1ccc(N(C(=O)Cn2nnc3ccccc32)C(C(=O)NCc2ccccc2)c2ccccn2)cc1 (centres undefined) | inconclusive: 16.7%
78 | Cc1oc(-c2ccccc2Cl)nc1CS(=O)CC(=O)NCCCN1CC(C)CC(C)C1 (centres undefined) | inconclusive: 18.7%
79 | CCC(=O)N1CCc2cc(S(=O)(=O)CCC(=O)N3CCCC(C)C3)ccc21 (centres undefined) | inconclusive: 16.8%
80 | COc1cccc(-n2c(CNc3ccc(F)cc3)nnc2SCC(N)=O)c1 | inconclusive: 14.2%
81 | Clc1ccc(OCCn2ccnc2)c2ccccc12 | inconclusive: 10.8%
82 | COc1ccccc1NS(=O)(=O)c1ccc(C(=O)Nc2ncccc2O)cc1 | active: 79.2%
83 | CC(C)Nc1nc(Oc2ccc(Cl)cc2)cc(C(F)(F)F)n1 | inconclusive: 28.9%
84 | COc1ccc(C(=O)n2nc(-c3ccc(OC)cc3)nc2N)cc1 | active: 58.7%
85 | CCN1CCN(CCNC(=O)CCc2c(C)c3c(C)nn(-c4ccccc4)c3n(C)c2=O)CC1 | inconclusive: 10.8%
86 | C/C(=C\c1ccccc1)C1NC(=O)c2c(sc3c2CCCC3)N1 (centres undefined) | inconclusive: 15.6%
87 | O=C(Nc1ncccc1O)c1ccc(Oc2ccccc2)cc1 | active: 56.3%
88 | CCS(=O)(=O)N1Cc2ccccc2CC1C(=O)OCC(=O)N(C(C)C)C(C)C (centres undefined) | inconclusive: 24.3%
89 | COc1ccccc1NS(=O)(=O)c1ccc2oc(SCC(C)=O)nc2c1 | active: 42%
